Values of other authors, collected in PMC6651381 (Molecules, 2019).

Test system: mice
Set-up: method as in PMID 25446027
Conditions: protective index, i.p., ratio TD50 / ED50, cited from earlier work

Row | SMILES | PI(MES) (listed as R enantiomer) | PI(MES) | PI(MES) (listed as racemate)
1 | Cc1cc(OCCN[C@@H]2CCCC[C@H]2O)ccc1Cl [Compound 1] | 1.72 | 1.722 ^# | 
2 | Cc1cc(OCCNC2CCCCC2O)ccc1Cl (centres unmarked) [Compound 3] |  | 2.839 ^# | 2.83
3 | CCCC(CCC)C(=O)O [VPA, valproate, reference compound] |  | 1.70 ^# | 

Like-named read-outs stand apart in the source and are kept apart here. Marks after values point to notes of the source that are not given here.
